From patent US10533989B2, “Metabolomics in pneumonia and sepsis” (University of Pittsburgh—Of the Commonwealth System of …, priority 2012, dated 2020)

Assay: Cecal ligation and puncture (CLP) sepsis model, metabolite levels in liver and kidney homogenates
Assay type: in vivo, C57BL/6 male mice
Details: mice, 8 h after CLP

SMILES | Difference CLP vs sham consistent across both liver and kidney compartments | Relative level in kidney homogenate, CLP vs sham | Relative level in liver homogenate, CLP vs sham | Relative level in kidney homogenate, CLP vs sham (listed as Pseudouridine) | Relative level in liver homogenate, CLP vs sham (listed as Pseudouridine)
C[C@@H](O)[C@H](NC(=O)Nc1ncnc2c1ncn2[C@@H]1O[C@H](CO)[C@@H](O)[C@H]1O)C(=O)O [N6-carbamoylthreonyladenosine] | No other differences were consistent | – | – | – | –
Cn1cnc2c(ncn2[C@@H]2O[C@H](CO)[C@@H](O)[C@H]2O)c1=N [N1-methyladenosine] | – | not significantly different | significant greater | – | –
NC(=O)NC1NC(=O)NC1=O (stereo not drawn) [allantoin] | No other differences were consistent | – | – | – | –
CNc1nc2c(ncn2[C@@H]2O[C@H](CO)[C@@H](O)[C@H]2O)c(=O)[nH]1 [N-2-methylguanosine] | No other differences were consistent | – | – | – | –
O=c1[nH]cc([C@@H]2O[C@H](CO)[C@@H](O)[C@H]2O)c(=O)[nH]1 [pseudouridine] | – | significant relative difference | significant relative difference | increased | increased
